Measurements taken from PubChem BioAssay AID2685 (National Center for Advancing Translational Sciences (NCATS), 2010).
This is one part of the list. These are further read-outs of the screen, such as a control signal, another cell line or another target. No call is given for them. Most of these compounds were active or inconclusive in the main read-out, so they are no random draw. The note in brackets gives the kind of curve behind each potency; many fits are weak.

Assay: qHTS Assay for Lipid Storage Modulators in Drosophila S3 Cells;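 as to cell number change: cells counted by Cell Tracker Red CMTPX staining in the red channel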
Conditions: BODIPY lipid droplet fluorescence, 18-24 h; for cell number change: measured here: cell count max response, cells fed with added oleic acid
Procedure, shortened: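 Drosophila S3 cells loaded with oleic acid (400 uM, as added) and compounds at several concentrations; lipid droplets imaged by 488-nm laser-scanning cytometry, 500–530 nm intensity and object ratio to cell channel. Percent activity normalized to 20 uM Triacsin C.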

[1] = measured here: cell number channel AC50, cells fed with added oleic acid
[2] = measured here: lipid fluorescence (Fed channel) AC50, cells fed with added oleic acid

SMILES	AC50 [1]	AC50 [2]	cell number change
COC(=O)C1=C(C)OC(N)=C(C#N)C1c1ccc(OC)c(CSc2ccccn2)c1 (stereo not given)	2.91 µM [rising, single point]	0.92 µM [rising, partial curve, poor fit]	–
CCOC(=O)c1sc(C)c(C(N)=O)c1NC1=NCCCCC1	–	–	-2.52%
Cc1ccc(C)c(N2CCN(C(=O)c3ccc(CS(=O)(=O)c4ccccc4C)o3)CC2)c1	2.31 µM [rising, full curve]	3.26 µM [rising, partial curve]	67.8%
CCC1CCc2sc(C(=O)OCC(=O)N(CCOC)c3c(N)n(Cc4ccccc4)c(=O)[nH]c3=O)cc2C1 (stereo not given)	–	0.00651 µM [falling, full curve, poor fit]	–
O=C(NC(C1CC1)C1CC1)C1CCC(=O)N(CCCN2CCCC2=O)C1 (stereo not given)	–	–	10.3%
C=C(C)COc1ccc(-c2n[nH]c(C)c2Oc2ccccc2OC)c(O)c1	18.4 µM [falling, single point]	29.1 µM [falling, single point]	-95.1%
Cc1ccc(-c2cc(C(=O)Nc3nn[nH]n3)c3ccccc3n2)cc1	–	0.291 µM [rising, full curve, poor fit]	-9.24%
CCOC(=O)N1CCN(C(=O)COc2ccc3oc4c(c3c2)CCCC4)CC1	4.61 µM [rising, partial curve]	–	40.2%
CC1(C)OC(=O)C(=CNCC(O)c2ccccc2)C(=O)O1 (stereo not given)	29.1 µM [rising, single point]	–	105%
O=C(O)c1cccc(CN2C(=O)S/C(=C/c3ccccc3[N+](=O)[O-])C2=O)c1	0.116 µM [falling, full curve, poor fit]	2.06 µM [falling, partial curve]	-2.67%
N#Cc1ccc(COC(=O)CN2C(=O)NC3(CCCC3)C2=O)cc1	0.731 µM [falling, full curve, poor fit]	–	-29%
N#CCSc1nnc(-c2c[nH]c3ccccc23)o1	–	6.51 µM [rising, single point]	1.62%
COc1ccccc1/C=C\C(=O)NCC(=O)N/N=C/c1cccc(OC)c1O	–	–	21.5%
Cc1cccc(C)c1OCc1cc(C(=O)N2CCN(c3ccccn3)CC2)no1	0.206 µM [rising, full curve, poor fit]	6.51 µM [rising, partial curve, poor fit]	7.37%
CCc1cc2cc(C(=O)Nc3ccc(C)cc3)sc2s1	11.6 µM [falling, partial curve]	13 µM [falling, partial curve]	-37.3%
CCN(CC)CCNC(=O)c1ccc(NC(=O)Cc2ccsc2)cc1	–	29.1 µM [rising, single point]	23.2%
Cc1ccc(-n2c(CNc3ccc(F)cc3)nnc2SCC(N)=O)cc1	–	0.0461 µM [falling, full curve]	-28.7%
COC(=O)c1sccc1NC(=O)c1ccccc1F	–	0.92 µM [rising, full curve]	8.62%

Part of the list above, with bars between the fields.
SMILES | AC50 [1] | AC50 [2] | cell number change
CCOC(=O)c1sc(C)c(C(N)=O)c1NC1=NCCCCC1 | – | – | -2.52%
Cc1ccc(C)c(N2CCN(C(=O)c3ccc(CS(=O)(=O)c4ccccc4C)o3)CC2)c1 | 2.31 µM [rising, full curve] | 3.26 µM [rising, partial curve] | 67.8%

(cont.)

SMILES	AC50 [1]	AC50 [2]	cell number change
COc1ccc(CC(=O)NCc2nnc(SCC(=O)Nc3ccc(OC)cc3)n2C)cc1	–	–	5.49%
CN1CCN(S(=O)(=O)c2ccc(NN)nc2)CC1	0.731 µM [falling, partial curve, poor fit]	0.731 µM [falling, partial curve]	-32.3%
COc1cccc(C(=O)Oc2ccc3ccc(O)cc3c2)c1	32.6 µM [falling, single point]	29.1 µM [falling, single point]	-32.8%
NS(=O)(=O)c1ccc(CCNC(=O)C2CCCN(S(=O)(=O)c3cccnc3)C2)cc1 (stereo not given)	4.11 µM [falling, single point]	0.184 µM [falling, full curve, poor fit]	1.1%
Cc1ccccc1CC(=O)N1CCN(C(=O)c2ccco2)CC1	–	29.1 µM [rising, single point]	-3.04%
COc1ccc(-n2ncc3c(N4CCN(Cc5ccccc5)CC4)ncnc32)cc1	–	–	-4.63%
COc1cc(C2CC(=O)Oc3c(C(CCN4CCCC(C)C4)c4ccc(N(C)C)cc4)c(OC)cc(OC)c32)cc(OC)c1OC (stereo not given)	–	20.6 µM [rising, single point]	15.7%
CCOC(=O)N1CCC(N(CCOC)C(=O)Nc2ccc(Cl)cc2)CC1	–	1.84 µM [rising, partial curve]	-19.9%
CCOc1ccc(C(=O)NCCC2=CCCCC2)cc1OCC	–	2.06 µM [falling, partial curve]	-17%
NC1=NC2(CCCCC2)N(c2cccc(Cl)c2)C(N)=N1	29.1 µM [falling, single point]	29.1 µM [falling, single point]	-64.6%
Cc1cccc(C)c1NC(=O)Nc1ccc(S(N)(=O)=O)cc1	–	18.4 µM [falling, single point]	13.7%
Cc1c[n+]([O-])ccc1Oc1ccc([N+](=O)[O-])cc1	–	29.1 µM [rising, single point]	7.43%
N#CC1=C(N)NC(SCC(=O)Nc2ccccc2)=C(C#N)C12CCCCC2	18.4 µM [falling, partial curve]	16.4 µM [falling, single point]	-40.2%
Cc1ccsc1/C=N/NC(=O)C1CC(=O)N(c2ccccc2)C1 (stereo not given)	–	0.92 µM [falling, partial curve]	-1.81%
Cc1csc2nc(CSc3nc4ccccc4o3)c(Br)n12	–	1.16 µM [rising, full curve, poor fit]	-15.9%
Cc1cc(Nc2ccccc2)n(-c2nc3ccccc3[nH]2)n1	16.4 µM [falling, single point]	2.06 µM [rising, partial curve, poor fit]	-49.5%
CS(=O)(=O)NCc1nnc(SCC(=O)NC2CCCCC2)n1-c1ccc(F)cc1	–	2.31 µM [falling, full curve]	1.25%
